Reference: article PMC8500422
No constants are given. Whether binding was seen depends on the method and setting. Binding seen in cells or lysates may run through a third protein. Some entries that bind do so weakly or less than the wild type. Sequences can lack the tags named with a protein.

Tests used:
Assay in all cases: co-IP; visible immunoprecipitation (VIP) assay: lysates of HEK293T cells coexpressing EGFP-fused and mChe-fused proteins (HMDEKN buffer: 10 mM HEPES pH 7.4, 5 mM MgSO4, 1 mM DTT, 0.5 mM EDTA, 25 mM KCl, 0.05% NP-40), precipitated with GST-tagged anti-GFP Nb on glutathione–Sepharose 4B beads, 1 h at 4°C; red fluorescence on the washed beads observed under a microscope
[1] = molecular target: T1, EGFP-fused BROMI(243–1,298) (human) (UniProt Q96NH3)
T1 sequence: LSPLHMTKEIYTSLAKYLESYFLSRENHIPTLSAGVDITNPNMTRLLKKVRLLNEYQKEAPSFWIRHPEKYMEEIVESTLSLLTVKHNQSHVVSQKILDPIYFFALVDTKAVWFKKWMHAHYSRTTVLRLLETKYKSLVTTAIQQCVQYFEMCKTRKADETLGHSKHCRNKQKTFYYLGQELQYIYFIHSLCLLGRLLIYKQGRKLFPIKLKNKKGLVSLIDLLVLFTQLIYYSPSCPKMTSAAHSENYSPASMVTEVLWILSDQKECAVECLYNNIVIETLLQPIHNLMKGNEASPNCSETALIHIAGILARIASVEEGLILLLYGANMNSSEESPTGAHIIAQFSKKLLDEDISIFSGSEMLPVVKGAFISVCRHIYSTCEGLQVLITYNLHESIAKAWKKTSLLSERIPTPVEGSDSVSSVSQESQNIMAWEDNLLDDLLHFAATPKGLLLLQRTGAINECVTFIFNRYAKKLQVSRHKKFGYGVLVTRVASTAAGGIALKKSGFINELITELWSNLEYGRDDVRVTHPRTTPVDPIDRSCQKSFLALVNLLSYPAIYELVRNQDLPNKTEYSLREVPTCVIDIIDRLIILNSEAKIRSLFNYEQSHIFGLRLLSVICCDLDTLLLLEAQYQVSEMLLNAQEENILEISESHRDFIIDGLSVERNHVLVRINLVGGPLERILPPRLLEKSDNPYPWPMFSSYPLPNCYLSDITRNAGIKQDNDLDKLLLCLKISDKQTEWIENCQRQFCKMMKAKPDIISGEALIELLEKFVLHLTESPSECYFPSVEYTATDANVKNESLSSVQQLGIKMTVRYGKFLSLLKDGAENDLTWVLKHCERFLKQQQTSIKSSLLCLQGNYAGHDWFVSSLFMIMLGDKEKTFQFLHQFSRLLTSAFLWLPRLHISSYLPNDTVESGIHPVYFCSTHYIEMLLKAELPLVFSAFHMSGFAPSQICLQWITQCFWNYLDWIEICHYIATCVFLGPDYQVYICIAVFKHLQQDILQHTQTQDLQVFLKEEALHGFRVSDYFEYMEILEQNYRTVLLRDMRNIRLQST

[2] = molecular target: T2, EGFP-fused BROMI(1,102–1,298) (human) (UniProt Q96NH3)
T2 sequence: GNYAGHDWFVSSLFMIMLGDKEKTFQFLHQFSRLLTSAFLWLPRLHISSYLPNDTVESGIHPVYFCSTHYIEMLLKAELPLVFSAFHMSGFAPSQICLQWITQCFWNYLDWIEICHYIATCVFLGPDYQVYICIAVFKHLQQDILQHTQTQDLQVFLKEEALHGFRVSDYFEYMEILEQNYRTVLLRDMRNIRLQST

[3] = molecular target: T3, EGFP-fused BROMI(157–1,298) (human) (UniProt Q96NH3)
T3 sequence: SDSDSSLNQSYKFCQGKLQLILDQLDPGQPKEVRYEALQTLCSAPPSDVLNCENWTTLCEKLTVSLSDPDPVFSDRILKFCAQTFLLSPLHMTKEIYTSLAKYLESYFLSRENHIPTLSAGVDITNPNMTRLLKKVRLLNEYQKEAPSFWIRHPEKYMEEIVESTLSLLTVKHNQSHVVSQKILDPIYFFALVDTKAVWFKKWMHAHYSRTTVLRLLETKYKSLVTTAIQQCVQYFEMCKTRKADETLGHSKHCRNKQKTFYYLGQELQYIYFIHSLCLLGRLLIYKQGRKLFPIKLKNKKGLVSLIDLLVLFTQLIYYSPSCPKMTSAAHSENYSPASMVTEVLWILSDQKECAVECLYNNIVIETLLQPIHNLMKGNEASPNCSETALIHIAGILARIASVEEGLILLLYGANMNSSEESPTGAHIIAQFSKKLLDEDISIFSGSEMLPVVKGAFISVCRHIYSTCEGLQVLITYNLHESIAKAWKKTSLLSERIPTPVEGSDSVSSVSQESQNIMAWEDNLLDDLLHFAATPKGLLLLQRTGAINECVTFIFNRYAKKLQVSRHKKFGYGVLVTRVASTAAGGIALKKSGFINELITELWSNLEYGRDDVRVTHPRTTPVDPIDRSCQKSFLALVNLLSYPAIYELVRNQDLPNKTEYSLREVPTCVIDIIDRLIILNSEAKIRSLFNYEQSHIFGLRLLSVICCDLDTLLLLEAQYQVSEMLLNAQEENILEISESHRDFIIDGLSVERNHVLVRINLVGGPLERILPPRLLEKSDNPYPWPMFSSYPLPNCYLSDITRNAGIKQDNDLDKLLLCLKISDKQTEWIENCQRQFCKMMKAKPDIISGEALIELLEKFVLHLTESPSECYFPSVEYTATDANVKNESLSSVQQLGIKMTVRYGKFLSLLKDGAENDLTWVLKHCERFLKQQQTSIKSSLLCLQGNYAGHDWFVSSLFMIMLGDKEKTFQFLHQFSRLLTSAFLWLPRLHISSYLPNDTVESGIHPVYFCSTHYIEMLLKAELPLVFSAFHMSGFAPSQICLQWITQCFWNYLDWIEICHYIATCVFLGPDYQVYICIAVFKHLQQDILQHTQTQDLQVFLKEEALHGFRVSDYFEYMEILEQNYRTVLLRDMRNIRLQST

binding [1]: binds
binding [2]: no binding
binding [3]: binds
Substance: CCRK-mChe (from UniProt Q8IZL9-1 1-346)
